Measured values from PubChem BioAssay AID652054 (National Center for Advancing Translational Sciences (NCATS), 2013).
Out of some 360,000 compounds screened, about 9,100 (2.5%) were called active. Inconclusive results, whose numbers are uncertain, are shown with a selection of clear calls. Rule as the data show it: active = max response below about -50%; inconclusive = no clear call, values can overlap the other calls; inactive = above that.

The chains behind the UniProt entries cited, without tags or fusion partners.
UniProt P35462, whole entry, looked up: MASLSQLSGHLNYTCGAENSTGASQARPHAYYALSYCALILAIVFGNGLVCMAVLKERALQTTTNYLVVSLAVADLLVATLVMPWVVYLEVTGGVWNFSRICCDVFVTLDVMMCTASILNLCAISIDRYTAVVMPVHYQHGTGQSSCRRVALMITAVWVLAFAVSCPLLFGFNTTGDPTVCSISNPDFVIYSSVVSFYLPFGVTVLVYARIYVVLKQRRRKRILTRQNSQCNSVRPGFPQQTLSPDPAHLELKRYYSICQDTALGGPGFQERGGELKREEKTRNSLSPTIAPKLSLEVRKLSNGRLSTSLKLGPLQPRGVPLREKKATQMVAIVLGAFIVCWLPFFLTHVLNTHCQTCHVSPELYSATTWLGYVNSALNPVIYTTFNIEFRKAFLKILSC

Target: D(3) dopamine receptor (Homo sapiens) (UniProt P35462)
Test: qHTS of D3 Dopamine Receptor Antagonist: qHTS
Details: D3R cells, DiscoveRx beta-arrestin luminescence, antagonist mode; stronger effect = lower value
Outline: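 Cells expressing the human receptor were seeded at 1500 cells/well, incubated overnight at 37 degrees C in 5% CO2, then exposed to library compounds with dopamine controls for 90 minutes at 37 degrees C before luminescent detection.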
% is scaled to controls: 0 for no effect and ±100 for the full control effect.

| Structure (SMILES) | max response, negative = inhibition |
| --- | --- |
| O=C(COc1ccc2ccc(=O)oc2c1)N1C[C@H]2C[C@@H](C1)c1cccc(=O)n1C2 | inactive: 8.22% |
| Cc1ccc(NP(=O)(c2ccccc2)c2nc3ccccc3s2)cc1 (stereo not drawn) | inconclusive: -32.3% |
| CC(C)c1ccc(O)c(CN2CCN(c3ccccc3)CC2)c1 | active: -71% |
| CCN(CC)Cc1c[nH]c2ccccc12 | inconclusive: -47.3% |
| CCOC(=O)C1(CCOc2ccccc2)CCN(Cc2ccc(C)s2)CC1 | active: -50.3% |
| COC(=O)C1=C(c2cc3ccccc3s2)C[C@@H]2CC[C@H]1N2C(=O)N1CCC(C)CC1 | inconclusive: -38.7% |
| CN1CCc2cc3c(cc2C1)OCO3 | inconclusive: -33.6% |
| CC1=C(C(=O)O)N2C(=O)[C@@H](NC(=O)CCCC(=O)O)[C@H]2SC1 | inconclusive: -33.2% |
| CCCNC(=O)N1[C@H]2CC[C@@H]1C(C(=O)OC)=C(c1ccc3ccccc3c1)C2 | inactive: -17.5% |
| CC(C)C[C@H]1COc2cccc(N3CCN(C)CC3)c2S(=O)(=O)N1 | inconclusive: -49.4% |
| CCOc1ccc(CN2CCCC(C(=O)c3ccccc3OC)C2)cc1 (stereo not drawn) | active: -81.3% |
| CCC(CO)Nc1ccc([N+](=O)[O-])c2cccnc12 (stereo not drawn) | inconclusive: -33.1% |
| COC(=O)C1=C(c2ccc(S(C)(=O)=O)cc2)C[C@@H]2CC[C@H]1N2C(=O)NC(C)C | inconclusive: -41.2% |
| CC(C)C[C@H](NC(=O)[C@@H]1CCCN1C(=O)[C@@H](N)Cc1ccc(O)cc1)C(=O)NCC(N)=O | inactive: 5.25% |
| COc1ccccc1N1CCN(Cc2cc(C)c(C)cc2O)CC1 | active: -84.5% |
| O=C(NCC1=C(c2cccc3ccccc23)C[C@@H]2CC[C@H]1N2Cc1ccco1)c1ccncc1 | inactive: -8.86% |
| Nc1ccc2cc(Br)ccc2c1 | inactive: -16% |
| CN(C)c1ccc(/C=C2/C(=O)NC(=O)N(CCc3ccc(F)cc3)C2=O)cc1 | inactive: 7.25% |
| O=C1OCCC1NC1=NCCC1 (stereo not drawn) | inconclusive: -33.3% |
| CCc1cccc(C)c1NC(=S)N1CC2CC(C1)c1cccc(=O)n1C2 (stereo not drawn) | inactive: -10.1% |
| O=C(N/N=C/c1c(O)n(CCC2=CCCCC2)c(=S)[nH]c1=O)c1ccccc1 | inconclusive: -40.5% |

| Structure (SMILES) | max response, negative = inhibition |
| --- | --- |
| CCOC(=O)c1c(C)[nH]c(C(=O)C(C)N2CCCC2)c1C (stereo not drawn) | inconclusive: -33.7% |
| O=C(CCN1CC=C(c2ccccc2)CC1)NCc1ccccc1 | active: -69.2% |
| COc1ccccc1CCNC1CCC(C(C)(C)C)CC1 (stereo not drawn) | active: -74.2% |
| CCN1/C(=C\C=C\C2=[N+](CC)c3ccccc3C2(C)C)C(C)(C)c2ccccc21 | active: -96.2% |
| N=C1c2ccccc2CN1NC(=O)c1ccc(Cl)cc1 | inconclusive: -43.8% |
| O=C(COc1ccccc1)N1CCN(CC(O)COc2ccccc2)CC1 (stereo not drawn) | active: -73.7% |
| COc1ccc(C(Nc2ccccc2)P(=O)(Oc2ccccc2)Oc2ccccc2)cc1 (stereo not drawn) | inconclusive: -35.8% |
| CCOC(=O)C1(c2ccccc2)CCN(CCC(=O)Nc2ccc(C(=O)OC)cc2)CC1 | active: -50.9% |
| O=C(Cc1ccccc1)N1CCN(Cc2cccnc2)CC1 | inconclusive: -42.5% |
| O=c1[nH]c(=O)n(CCC2=CCCCC2)c(O)c1C=NC1CCN(Cc2ccccc2)CC1 | inactive: 22.3% |
| N#CCCn1cc(C(=O)Nc2ccc([N+](=O)[O-])cc2)c(-c2ccc3c(c2)OCCO3)n1 | inconclusive: -36.1% |
| COc1ccc(CN2CCCC(C(=O)c3cccc(Cl)c3)C2)cc1 (stereo not drawn) | active: -73.2% |
| COc1ccccc1-n1c(O)c(C=NCc2ccc3c(c2)OCO3)c(=O)[nH]c1=O | inconclusive: -34.5% |
| CC(C)(C)NCC(O)c1cc(Cl)c(N)c(Cl)c1 (stereo not drawn) | inconclusive: -35.1% |
| O=C1NC2C(=CC(O)C(O)C2O)c2cc3c(c(O)c21)OCO3 (stereo not drawn) | inconclusive: -30.1% |
| Clc1ccc(OCC#CCN2CCCCCC2)cc1 | active: -90.6% |
| COc1ccc2c(c1OC)CN1CCc3cc4c(cc3[C@H]1C2)OCO4 | active: -113% |
| CN1C2CCC1CC(OC(=O)c1ccc(Cl)cc1)C2 (stereo not drawn) | inconclusive: -35.5% |
| COC(=O)C[C@]1(C(=O)OC)CN(C#N)N(c2ccc(Cl)cc2)C12c1ccccc1-c1ccccc12 | active: -74.5% |
| Cc1ccc(C(=O)N[C@@H](C)CN2C3=NC[C@@H](Cc4ccccc4)N3C[C@H]2Cc2ccc(O)cc2)cc1Br | active: -70.4% |
| Cc1ccc(OCC(=O)N2CCN(Cc3ccc4c(c3)OCO4)CC2)cc1 | inconclusive: -49.5% |
| O=[As](O)(O)c1ccc(N=Nc2ccc(O)cc2)cc1 | active: -99.2% |

| Structure (SMILES) | max response, negative = inhibition |
| --- | --- |
| COc1ccccc1N1CCN(Cc2ccccc2F)CC1 | active: -92.2% |
| N#CC(C#N)=Cc1cccnc1 | inactive: -1.33% |
| CN1CCN(c2nc(N)c(Br)c(Cl)n2)CC1 | active: -68.6% |
| O=c1[nH]c2ccccc2n1C1CCN(Cc2ccc(-c3nc4ccc(F)cc4nc3-c3ccccc3)cc2)CC1 | active: -95.9% |
| Clc1ccc(OCC#CCN2CCCC2)cc1 | active: -55.5% |
| CCc1ccc(N2C(=O)NC(=O)/C(=C/c3cccn3CCOc3ccc(C)cc3)C2=O)cc1 | inconclusive: -38.3% |
| O=C1/C(=C\c2cc3c(cc2Cl)OCO3)N2CCC1CC2 | inconclusive: -44.4% |
| OC(CNC1CCCCC1)c1ccccc1 (stereo not drawn) | inconclusive: -37.6% |
| CCC1(c2ccc(-c3ccccc3)cc2)C(=O)NC(=O)NC1=O | inactive: 3.37% |
| Cc1c(C)c2ccc(OCC(=O)N3C[C@H]4C[C@@H](C3)c3cccc(=O)n3C4)c(C)c2oc1=O | inactive: -15% |
| CC(C)(C)c1ccc(O)c(CN2CCN(c3ccccc3)CC2)c1 | active: -71% |
| CCCn1ncc(CN2CCCC(C(=O)c3cccc(OC)c3)C2)c1C (stereo not drawn) | inconclusive: -38.4% |
| C[n+]1c2ccccc2nc2ccc(NCCO)cc21 | active: -53.9% |
| O=C1NC(=O)C(=Cc2cn(CCOc3ccc4c(c3)OCO4)c3ccccc23)C(=O)N1 | inactive: 23.3% |
| COc1ccc(C(=O)C2CCCN(CCc3ccccc3)C2)cc1OC (stereo not drawn) | active: -68.1% |
| COc1cc(/C=C/c2nc3ccccc3c(=O)n2-c2ccccc2O)ccc1O | inactive: 2.71% |
| CC(C)Cc1nnc(NC(=O)CCC(=O)N2CCC3(CC2)OCCO3)s1 | inactive: -0.84% |
| C=C1C(=O)O[C@H]2[C@H]1[C@H](OC(=O)CC(=O)O[C@@H]1C[C@@H](C)[C@@H]3C=CC(=O)[C@@]3(C)[C@H]3OC(=O)C(=C)[C@H]13)C[C@@H](C)[C@H]1C=CC(=O)[C@]12C | inactive: -13.1% |
| CN(C)CC#CCC(O)(c1ccccc1)C1CCCC1 (stereo not drawn) | inconclusive: -39.5% |
| CN(CCCCC(=O)/C=N/O)Cc1ccccc1 (tested in a mixture with another compound) | inconclusive: -45.8% |
| COC(=O)C1=C(c2ccc(S(C)(=O)=O)cc2)C[C@@H]2CC[C@H]1N2C(=O)NCc1ccccc1 | inconclusive: -38.5% |
| Cc1ccc2c(c1)CC1(CN2C)C(=O)NC(=O)N(CCC2=CCCCC2)C1=O (stereo not drawn) | inconclusive: -39.5% |

| Structure (SMILES) | max response, negative = inhibition |
| --- | --- |
| Cn1ncnc2c(=O)n(C)c(=O)nc1-2 | active: -80.9% |
| COc1ccc(OCC#CCN2CCC(C)CC2)cc1 | inconclusive: -45.4% |
| CCN1CC=C(c2c[nH]c3ccccc23)CC1 | active: -70.7% |
| CC(C)(C)N1C(=O)NC(=O)/C(=C\c2ccc3c(c2)CCN3CCCCl)C1=O | inconclusive: -34.4% |
| CC(C)C(=O)c1cn(Cc2ccc(C#N)cc2)c2ccccc12 | inconclusive: -31.2% |
| COc1ccc(NC(=S)NC(NC(=O)CF)C(Cl)(Cl)Cl)c([N+](=O)[O-])c1 (stereo not drawn) | inactive: -0.453% |
| O=C(COc1ccccc1)N1CCN(C/C=C/c2ccccc2)CC1 | inconclusive: -34.9% |
| Cc1[nH]c2ccccc2c1C1=CCNCC1 | inconclusive: -31.9% |
| COc1cccc(CCNCc2ccc(SC)cc2)c1 | inconclusive: -41.4% |
| Cc1c(N=Nc2c(O)[nH]c(=S)[nH]c2=O)c(=O)n(-c2ccccc2)n1C | active: -65.6% |
| CN1CC(C(=O)c2ccccc2)C(C(=O)c2ccccc2)C1 (stereo not drawn) | inconclusive: -33.2% |
| CCC(c1nnnn1-c1ccc(OC)cc1)N1CCC(n2c(=O)[nH]c3ccccc32)CC1 (stereo not drawn) | inactive: 0% |
| O=C(c1cc(Br)ccc1Cl)N1CCC2(CC1)OCCO2 | inconclusive: -33.3% |
| Cc1ccccc1N1C(=O)NC(=O)/C(=C\c2ccc3c(c2)CCCN3Cc2ccccc2)C1=O | inactive: 2.85% |
| COc1ccccc1N1CCN(CCc2c[nH]c3cc4c(cc23)OCO4)CC1 | active: -79.2% |
| c1ccc2c(CN3CCN(C4CCCCC4)CC3)c[nH]c2c1 | active: -67.5% |
| COc1ccc2cc(C(=O)C3CCCN(C4CCOCC4)C3)ccc2c1 (stereo not drawn) | inconclusive: -39.3% |
| Fc1ccc(CCNCc2ccc(Cl)c(Cl)c2)cc1 | active: -72.1% |
| O=c1[nH]c2ccccc2n1C1CCN(Cc2ccc(-c3[nH]c4cc5ncnc5cc4nc3-c3ccccc3)cc2)CC1 | active: -95.8% |
| COc1ccc(C(=O)OC2C[C@H]3CC[C@H](C2)N3C)cc1OC (stereo partly drawn) | inactive: -4.64% |
| CC12CCC3C(CCC4CC(=O)C(C(O)C(F)(F)F)CC43C)C1CCC2O (stereo not drawn) | inactive: -22.4% |
| Cc1cccc2nc(-c3ccccc3)c(-c3ccc(CN4CCC(n5c(=O)[nH]c6ccccc65)CC4)cc3)nc12 | inconclusive: -40.3% |
